We go through two compounds from patent US7998710B2, “Process for purifying difructose dianhydride III” (Nippon Beet Sugar Mfg., Co., Ltd., priority 2003, dated 2011).

The nature of the data set: Sensory test for the respectively processed DFA III by 20 expert panelists. The conditions noted are these: 20 panelists; for Oral sense of dissolution / Total evaluation: scale +2 good to -2 worse; for Sharpness of sweetness: scale +2 plain and simple to -2 over-rich; for Sweetness: scale +2 sweet to -2 not sweet. On the procedure: Crystals of DFA III were finely pulverized with a mortar, to which water was added in an amount of 10 parts per 100 parts of DFA III, and the mixture was homogenized. This was granulated with an extrusion granulator (Fuji Powdal Co.; FINERYUZER, type EXR-60, performance 40-150 kg/hr) and dried at 70° C. with a blower-type thermostatic incubator (Yamato Science Co.; type DN910) for 3 hours to yield granular DFA III.
By 20 expert panelists, crystal DFA III; finely pulverized DFA III and granular DFA III were subjected to a sensory test.

Setting [1] is: granular DFA III evaluated to finely pulverized DFA III.
[2] abbreviates: finely pulverized DFA III evaluated to crystal DFA III.

On to `OC[C@H]1O[C@@]2(CO[C@]3(CO)O[C@H](CO)[C@@H](O)[C@@H]3O2)[C@@H](O)[C@@H]1O` [granular DFA III], for which, under setting [1], the “Oral sense of dissolution” value is listed as “+0.5”, the Total evaluation entry was “+0.5”, the Sharpness of sweetness result is recorded as “+0.2” and the Sweetness entry is given as “+0.1”.

As to `OC[C@H]1O[C@@]2(CO[C@]3(CO)O[C@H](CO)[C@@H](O)[C@@H]3O2)[C@@H](O)[C@@H]1O` [finely pulverized DFA III], under setting [2], the “Oral sense of dissolution” value is “+1.4”, the Total evaluation entry was “+1.7”, the Sharpness of sweetness entry is on record as “+0.5” and the Sweetness result is on record as “+1.2”.
